Several values for one entry are separate records, joined by “and”; a condition that tells them apart may be missing. Equal entries are not always repeated. About 310 (0.44%) of roughly 71,000 compounds were called active. Inconclusive results, whose numbers are uncertain, are shown with a selection of clear calls. The call rests on the fitted dose curve; in most records, active means well fitted curve in either direction with a large enough effect; inconclusive means small, poorly fitted or top-dose-only effect, or another doubt; inactive means flat fitted curve, though single readings scatter. Potencies of inconclusive entries are doubtful fits and often do not repeat.
tested on: Hsp90 C-terminal peptide / TPR2A (Hop) interaction, human; experiment: qHTS Assay for Disrupters of an Hsp90 Co-Chaperone Interaction; conditions: AlphaScreen TPR2A-His6 binding biotin-Hsp90 C-terminal peptide; activity change, negative = inhibition: at 57 µM (top of the series) unless noted
On the % scale 0 is the no-effect control and ±100 the full control effect; potency means the concentration at half of the fitted maximal effect.

Structure (SMILES) | activity change, negative = inhibition | Potency
Cc1ccc(C(=O)OCc2cc3ccccc3[nH]c2=O)cc1 | inactive | 
COc1cccc(NC2CC(=O)N(CCc3ccccc3)C2=O)c1 (stereo not drawn) | inactive | 
Clc1ccc(/C=C\c2nc(Cl)c(-c3ccc(Cl)cc3)c(Cl)n2)cc1 | inactive: 0.613% [at 11 µM] | 
CCC(=O)N1CCc2cc(S(=O)(=O)NCCN3CCC(C)CC3)ccc21 | inconclusive: 51.7% | 
Cc1csc(NC(=O)CSc2nnc(Cc3cccn3C)n2CCc2ccccc2)n1 | inactive | 
O=C(/C=C/Nc1cccc(O)c1)c1ccccc1 | inconclusive: 41.3% | 
NC[C@@H]1O[C@@H](O[C@H]2[C@H](O)[C@H](O[C@@H]3O[C@H](CO)[C@@H](O)[C@H](N)[C@@H]3O)[C@@H](N)C[C@H]2N)[C@H](N)C[C@@H]1O | inactive | 
Oc1c(CN2CCOCC2)cc(COCc2ccccc2)c2cccnc12 |  | active: 1.58 µM
O=S(=O)(Nc1ccc2c(c1)OCCO2)c1ccc(Br)s1 | inconclusive: 43.3% | 
O=S(=O)(/N=C(/Nc1cc(N2CCOCC2)ncn1)c1ccccc1)c1ccccc1 | inconclusive: 38.4% | 
CC1(C)Cc2c(c(N3CCOCC3)nc3sc(-c4ccc(C(=O)O)o4)c(N)c23)CO1 | inconclusive: 31.8% | 
CC(C)c1ccc2oc(-c3cc(N)ccc3O)nc2c1 | inactive: -17.6% [at 11 µM] | 
Cc1cc(C)n(CC(O)COc2ccccc2C(=O)Nc2ccccc2)n1 (stereo not drawn) | inconclusive: 56.9% | 
O=C(Oc1cccc2cccnc12)c1ccc(Br)o1 |  | active: 25.1 µM
COc1ccc(Nc2oc(COc3ccc(Cl)cc3)nc2C#N)cc1 |  | inconclusive: 31.6 µM [inhibitor, single point]
CCOC(=O)c1oc2ccccc2c1NC(=O)COC | inactive | 
Cc1cccc(NC(=O)CN(C)S(=O)(=O)c2ccccc2)n1 | inconclusive: 44% | 
Cc1ccc2ccc(S(=O)(=O)n3nc(C)cc3C)cc2c1 | inconclusive: 92% | 
Nc1ccc(N=Nc2ccccc2)c(N)c1 |  | inconclusive: 12.6 µM [inhibitor, partial curve]
C[C@@H]1O[C@@H](O)[C@@H](O)[C@H](O)[C@H]1O | inactive: -1.84% [at 11 µM] | 
Cc1c(Cl)cccc1NC(=O)CSc1nnc(CCNC(=O)OC(C)(C)C)o1 | inconclusive: 40.5% | 
O=C(c1csnn1)N1CCC2(CC1)CN(c1ccccn1)C2 | inconclusive: 59.2% | 

Structure (SMILES) | activity change, negative = inhibition | Potency
O=C(CSc1nncs1)N1c2ccccc2Sc2ccccc21 | inconclusive: 43.3% | 
Cc1cc(C(=O)N2CCC(C(F)(F)F)n3nccc32)on1 (stereo not drawn) | inconclusive: 51.7% | 
COc1cccc(-n2nnnc2SCC(=O)c2ccc(NC(C)=O)cc2)c1 | inconclusive: 85.6% | 
CCCCC[C@H](O)C=C[C@H]1[C@H](O)CC(=O)[C@H]1CCCCCCC(=O)O | inconclusive: 60.1% | 
Cc1ccc(N=c2oc3cc(O)ccc3cc2C(N)=O)cc1 | inactive | 
O=C(CN1CCOCC1)Nc1ccc(Oc2ccc(NC(=O)CN3CCOCC3)cc2)cc1 |  | inconclusive: 25.1 µM [inhibitor, single point]
COc1cccc(CNc2ccc(N3CCCCC3)cc2)c1OC |  | inconclusive: 12.6 µM [inhibitor, partial curve]
O=C(Oc1nsnc1N1CCOCC1)N1CCOCC1 | inconclusive: 50.6% | 
COc1ccc(-c2nc3cnc(N4CCNCC4)nc3n(CCc3ccccc3)c2=O)cc1 |  | inconclusive: 39.8 µM [activator, single point]
Cc1c(NC(=O)c2cc(-n3cnnc3)ccc2Cl)cccc1-c1nc2ccccc2o1 | inactive | 
CCCCSc1nc2c(c(=O)[nH]c(=O)n2C)n1CCc1ccccc1 | inconclusive: 57.6% | 
COc1ccc2[nH]c(=O)c(CN(Cc3ccco3)Cc3nnnn3Cc3ccccc3)cc2c1 | inactive | 
O=C(NCCCNCc1ccccc1)c1ccc(/C=N/O)nc1 |  | inconclusive: 3.98 µM [inhibitor, single point]
CNC(=O)c1ccccc1-c1ccccc1 | inconclusive: 58.2% | 
N#Cc1nc(COc2cccc(Cl)c2)oc1N1CCCC1 |  | inconclusive: 15.8 µM [inhibitor, partial curve]
CCOc1ccc(NC(C)=O)cc1 | inactive | 
c1c[nH]c(CN2CCN(Cc3ncc[nH]3)CC2)n1 |  | inconclusive: 3.16 µM [inhibitor, single point]
COc1ccc(CNc2nc(SC)n[nH]2)cc1OC | inconclusive: 57.9% | 
COc1ccc(-c2nc(C#N)c(N3CCCCCC3)o2)cc1 |  | inconclusive: 15.8 µM [inhibitor, partial curve]
Cc1c(NC(=O)COC(=O)Cc2ccc(Cl)cc2)c(=O)n(-c2ccccc2)n1C | inconclusive: 49.9% | 
COC(=O)c1oc2ccc(OC)cc2c1N | inactive | 
COc1cccc(C(c2nnnn2Cc2ccccc2)N2CCN(C(=O)c3ccco3)CC2)c1OC (stereo not drawn) | inactive | 

Structure (SMILES) | activity change, negative = inhibition | Potency
Cc1cc(C)n(-c2ccc(C(=O)OCC(=O)c3c(N)n(C)c(=O)n(C)c3=O)cc2)n1 | inconclusive: 37% | 
O=C(Oc1ccc2ccccc2c1)c1ccco1 | inactive | 
C[N+]1(CCC(=O)c2ccco2)CC2CCC(CC2)C1 (stereo not drawn) | inactive: -3.75% [at 11 µM] | 
O=C(O)c1cccnc1C(=O)O |  | active: 25.1 µM and active: 3.16 µM
Cc1ncc(CSc2nnnn2-c2ccccc2)c(N)n1 | inactive | 
Cc1ccccc1N1OC2C(=O)N(c3ccc(F)cc3)C(=O)C2C1c1ccccn1 (stereo not drawn) | inactive | 
Nc1nc(SCC(=O)N2CCCc3ccccc32)[nH]c(=O)c1-c1ccccc1 | inactive | 
COc1ccc(C(C)(C)C)cc1NC(=O)Nc1ccc2c(c1)OCO2 |  | inconclusive: 25.1 µM [inhibitor, single point]
CC(=O)Nc1nc(COc2ccccc2)cs1 | inactive | 
CCOC(=O)c1ccc(NC(=O)CN(C)S(=O)(=O)c2ccc(OC)cc2)cc1 | inconclusive: 43.3% | 
CCOc1ccc2nnnn2n1 | inconclusive: 51.1% | 
COc1ccc(Oc2ncc3nc(-c4cccs4)c(=O)n(Cc4cccs4)c3n2)cc1 | inactive | 
CCCCn1c(=O)[nH]c(=O)c2c1nc(COC(=O)c1c(C)noc1C)n2CCC | inconclusive: 40.7% | 
Cc1ccc(N(C(=O)c2ccncc2)C2C=CS(=O)(=O)C2)cc1 (stereo not drawn) | inconclusive: 49.1% | 
Cc1nc(C)n(CC(O)COc2ccc3cc(Br)ccc3c2)n1 (stereo not drawn) | inconclusive: 44.8% | 
COC(=O)c1nnn(-c2nonc2N)c1CSc1ccccn1 | inconclusive: 57.1% | 
CC(C)COC(=O)Cn1cnc2ccc(Br)cc2c1=O | inconclusive: 53.5% | 
CCCc1nc(SCC(=O)N2CCN(c3ccccc3)CC2)c2c(=O)n(C)c(=O)n(C)c2n1 | inactive | 
Cc1[nH]c2ccc(C(=O)OCCN(C)C)cc2c1C | inconclusive: 59.1% | 
O=C(Nc1cccc(N2CCCC2)c1)c1cccs1 | inactive | 
CCOC(=O)c1c(NC(=O)c2ccco2)sc2c1CCCCC2 |  | inconclusive: 31.6 µM [activator, single point]
CCOC(=O)N1CCN(CC(=O)Nc2c(C(=O)OC)[nH]c3ccc(Cl)cc23)CC1 | inactive | 

Structure (SMILES) | activity change, negative = inhibition | Potency
Cc1noc(C)c1COC(=O)c1cc2c3ccccc3n(C)c2s1 |  | inconclusive: 31.6 µM [activator, single point]
Cc1cc(NC(c2cccnc2)c2c(C)[nH]c3ccccc23)no1 (stereo not drawn) | inconclusive: 42% | 
Cc1nc2cc(NC(=O)NCc3ccco3)ccc2o1 | inconclusive: 42.9% | 
CC(C)[C@]1(Cl)CC[C@@H]2[C@]3(C)CCC[C@@](C)(C(=O)O)[C@H]3C[C@H](Cl)[C@@]2(Cl)[C@H]1Cl | inconclusive: 87.6% [at 11 µM] | 
CC(C)c1ccc(C(O)c2cnc(C(C)C)n2C)cc1 (stereo not drawn) | inconclusive: 42.7% [at 2.3 µM] | 
Oc1ccc2[nH]ccc2c1 | inactive | 
O=C(NCCSc1c[nH]c2ccccc12)c1ccc(Br)o1 | inactive | 
Cn1c2ccc(F)cc2c2ncn(CCN3CCOCC3)c(=O)c21 | inconclusive: 40.8% | 
O=C(Nc1ccccc1)c1cccc(N2CCCC2=O)c1 | inactive | 
S=C(Nc1ccccc1)Nc1ccccc1C#Cc1ccccc1 |  | inconclusive: 12.6 µM [inhibitor, partial curve]
Clc1ccc(-c2nnc(SCc3cn4ccsc4n3)n2CC2CCCO2)cc1 (stereo not drawn) | inconclusive: 41.5% | 
COC(=O)c1ccc(C2C(C#N)=C(C)NC3=C2C(=O)CC(C)(C)C3)cc1 (stereo not drawn) | inactive | 
Clc1ccc2nc(CN3CCCc4ccccc43)cn2c1 |  | inconclusive: 31.6 µM [inhibitor, single point]
CC(=O)c1cccc(NC(=O)NC2CCCCC2)c1 | inconclusive: 46.5% | 
N#Cc1c(N)sc(=S)c2c1CCCC2 | inactive | 
CC(C)CNc1nc2ncnc(N)c2[nH]1 | inactive: 0.198% [at 11 µM] | 
Cc1noc(C)c1COC(=O)Cc1ccc(Cl)c(Cl)c1 | inconclusive: 131% | 
COCC(C)n1c(C)cc(C(=O)COC(=O)c2c(NC(C)=O)sc(C)c2C)c1C (stereo not drawn) | inactive | 
CCNc1ncc2nc(-c3cc(F)cc(F)c3)c(=O)n(Cc3cccs3)c2n1 | inactive | 
CC[N+](CC)(CC)CC[C@](O)(c1ccccc1)C1CCCCC1 | inactive | 
CC(C)[C@@H](CC(=O)N[C@@H]1CCCC[C@H]1C(=O)N[C@H](CC(=O)N[C@@H](CCC(=O)O)CC(=O)O)Cc1c[nH]c2ccccc12)NC(=O)C[C@H](Cc1c[nH]c2ccccc12)NC(=O)[C@@H]1CNCC[C@H]1N |  | active: 15.8 µM
N#C[C@@H](Cc1ccc(O)c(O)c1)C(=O)N1CCc2ccccc21 |  | active: 6.31 µM

— PubChem BioAssay AID595 (National Center for Advancing Translational Sciences (NCATS), 2007)
